Taken from: PubChem BioAssay AID504774 (Drosophila RNAi Screening Center, 2011)
Purpose: 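Genes required for cells to withstand methyl methanesulphonate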 (primary screen). Cell system: Drosophila Kc167 cells. Reagent: long dsRNA against Drosophila genes, about 0.25 µg dsRNA per well. Duration: about 6 days: 3 days knock-down, then 3 days with or without MMS. Challenge: methyl methanesulphonate 0.004% (w/v) for 3 days after knock-down. Measurement: 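ATP-dependent luminescence as a measure of live cells in MMS-exposed wells, quantile normalised within each plate, with replicate values also given as a mean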. Direction: mean viability with MMS: higher = more surviving cells after MMS.
The deposit covers about 23,000 reagents; below is a random part of those with a known target gene and a result. 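Values are quantile-normalised luminescence on an arbitrary scale; higher means more cells surviving MMS.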 The numbers tell different reagents against one gene apart. Further read-outs or replicates are left out here.

Knock-down of CG10311 gave: mean viability with MMS 3.69e6. Against CG18094, the values are mean viability with MMS 3.51e6. With knock-down of CG8093, the record shows mean viability with MMS 3.64e6. Against Fum2, the values are mean viability with MMS 3.54e6. With knock-down of CG11322, the screen gave mean viability with MMS 3.80e6. Silencing of CG5334 came out at: mean viability with MMS 3.59e6.

With knock-down of mmy, the screen gave mean viability with MMS 3.42e6. After knock-down of CG16957 the results were mean viability with MMS 3.61e6. With knock-down of ctp the results were mean viability with MMS 3.63e6. CG33160 scored mean viability with MMS 3.49e6. Against ps #1 the deposit lists mean viability with MMS 3.57e6. Silencing of ps #2 came out at: mean viability with MMS 3.17e6.

Silencing of ps #3 gave: mean viability with MMS 3.20e6. ps #4 showed mean viability with MMS 3.58e6. With knock-down of ps #5, the record shows mean viability with MMS 3.48e6.

2 neighbouring records already listed, for reference:
ps #2 — mean viability with MMS = 3.17e6
ps #3 — mean viability with MMS = 3.20e6
